Values of other authors, collected in article PMC10090470 (Parasitology, 2023).
Where two headings read alike, the source gives them in different places.

What was measured:
[1] = system: bloodstream trypomastigote forms of Trypanosoma cruzi (Y strain, DTU II); details: cited from earlier work
[2] = system: intracellular forms of Trypanosoma cruzi (Tulahuen strain, DTU VI); details: read-out: Activity against intracellular forms of the parasite EC50, ± S.D., ref Simões-Silva et al. (2019); cited from earlier work

Q: With `Cc1ccc(NC(=O)c2ccc(CN3CCN(C)CC3)cc2)cc1Nc1nccc(-c2cccnc2)n1` [IMB, Imatinib] as the compound, how does the EC50 ([1]; read-out: Activity against bloodstream trypomastigotes EC50, 2 h, ref Simões-Silva et al. (2019)) read?
A: > 50 µM

Q: What about the EC50 ([1]; read-out: Activity against bloodstream trypomastigotes EC50, 24 h, ± S.D., ref Simões-Silva et al. (2019)) of the same compound?
A: 47.1 ± 9.5 µM

Q: And the EC90 ([1]; read-out: Activity against bloodstream trypomastigotes EC90, 2 h, ref Simões-Silva et al. (2019))?
A: > 50 µM

Q: And the EC90 ([1]; read-out: Activity against bloodstream trypomastigotes EC90, 24 h, ± S.D., ref Simões-Silva et al. (2019))?
A: > 50 µM

Q: And the EC50 [2]?
A: 24.8 ± 7.4 µM
